Test results from paper PMC11658694, “Acetylation of the yeast Hsp40 chaperone protein Ydj1 fine-tunes proteostasis and translational fidelity” (PLOS Genetics, 2024).
Results are given in words; binding and its absence hold for the method and conditions named. In cells and extracts the contact can be indirect. Some binding calls cover weakened binding; strength is not graded here.

Protein sequences, listed by entry. Tags and fused reporters are not part of them. Lines headed by an entry give the natural chain unless they say otherwise; changes in a name come on top. Chains listed by the source or under a name are the forms on record and can include a tag or linker.
UniProt P25491: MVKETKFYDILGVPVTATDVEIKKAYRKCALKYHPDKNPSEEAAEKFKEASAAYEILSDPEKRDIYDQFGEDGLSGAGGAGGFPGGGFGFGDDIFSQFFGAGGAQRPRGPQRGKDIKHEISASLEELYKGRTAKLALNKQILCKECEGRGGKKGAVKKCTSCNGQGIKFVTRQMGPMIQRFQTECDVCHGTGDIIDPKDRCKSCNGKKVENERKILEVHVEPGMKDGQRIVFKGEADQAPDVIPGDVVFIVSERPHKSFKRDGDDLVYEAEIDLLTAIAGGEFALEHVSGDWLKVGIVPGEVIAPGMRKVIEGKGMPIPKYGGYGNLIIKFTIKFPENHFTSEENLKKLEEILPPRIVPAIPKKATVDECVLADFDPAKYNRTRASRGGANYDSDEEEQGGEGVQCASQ
Ydj1-FLAG 6KR (S. cerevisiae (budding yeast)) (P25491, form named): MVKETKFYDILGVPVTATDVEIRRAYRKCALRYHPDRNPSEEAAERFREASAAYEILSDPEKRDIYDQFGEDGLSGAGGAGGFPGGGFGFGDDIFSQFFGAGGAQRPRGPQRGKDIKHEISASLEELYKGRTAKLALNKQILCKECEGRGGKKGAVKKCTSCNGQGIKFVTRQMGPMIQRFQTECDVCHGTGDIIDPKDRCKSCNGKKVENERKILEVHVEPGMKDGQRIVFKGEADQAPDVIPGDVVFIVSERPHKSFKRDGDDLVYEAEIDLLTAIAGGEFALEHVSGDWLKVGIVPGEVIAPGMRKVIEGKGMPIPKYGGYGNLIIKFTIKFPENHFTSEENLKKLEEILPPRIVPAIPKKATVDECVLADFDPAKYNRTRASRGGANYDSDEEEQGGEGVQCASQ
UniProt P10591: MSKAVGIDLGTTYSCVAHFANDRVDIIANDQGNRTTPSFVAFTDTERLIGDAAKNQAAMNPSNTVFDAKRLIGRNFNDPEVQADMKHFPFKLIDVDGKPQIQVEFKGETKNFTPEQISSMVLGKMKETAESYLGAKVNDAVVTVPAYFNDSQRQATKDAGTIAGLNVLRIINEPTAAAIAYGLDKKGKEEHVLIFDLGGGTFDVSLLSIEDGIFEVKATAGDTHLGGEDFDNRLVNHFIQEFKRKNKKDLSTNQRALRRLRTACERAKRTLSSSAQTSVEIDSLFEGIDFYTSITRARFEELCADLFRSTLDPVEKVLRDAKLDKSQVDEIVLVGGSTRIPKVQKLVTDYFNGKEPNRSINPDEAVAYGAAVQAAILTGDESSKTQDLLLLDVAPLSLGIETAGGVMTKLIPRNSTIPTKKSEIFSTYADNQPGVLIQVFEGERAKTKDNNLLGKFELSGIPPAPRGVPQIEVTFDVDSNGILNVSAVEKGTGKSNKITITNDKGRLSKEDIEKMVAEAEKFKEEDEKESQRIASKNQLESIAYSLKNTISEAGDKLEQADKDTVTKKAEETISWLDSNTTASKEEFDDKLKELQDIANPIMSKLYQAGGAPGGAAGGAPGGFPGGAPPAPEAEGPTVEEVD

Experiments:
[1] = biological target: Ydj1-FLAG 6KR (S. cerevisiae (budding yeast)) (UniProt P25491); assay: co-IP; Ydj1-FLAG held on anti-FLAG M2 magnetic beads from yeast extract; 50 mM Na-phosphate pH 8.0, 300 mM NaCl, 0.01% Tween-20, 4°C overnight; eluted with 3X FLAG peptide; blots with antisera to Ssa1, FLAG or the Glu tag
[2] = biological target: Ydj1-FLAG wild-type (S. cerevisiae (budding yeast)) (UniProt P25491); assay: as above

Question: Which results are given for “Ssa1 (endogenous, yeast) (from UniProt P10591 1-642)”?
Answer: binding [1]: binds; binding [2]: binds
